Measurements taken from PubChem BioAssay AID2685 (National Center for Advancing Translational Sciences (NCATS), 2010).
The other results are listed elsewhere or left out. Shown are side measurements of this screen, not its main read-out; they come without a call. Most of these compounds were active or inconclusive in the main read-out, so they are no random draw. The note in brackets gives the kind of curve behind each potency; many fits are weak.

Test: qHTS Assay for Lipid Storage Modulators in Drosophila S3 Cells;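 as to cell number change: cells counted by Cell Tracker Red CMTPX staining in the red channel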
Conditions: BODIPY lipid droplet fluorescence, 18-24 h; for cell number change: measured here: cell count max response, cells fed with added oleic acid
Summary of the method: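 Drosophila S3 cells got compounds at several concentrations plus oleic acid (400 uM solution). Laser-scanning cytometry with 488 nm excitation read lipid droplets at 500-530 nm and cells at 575-640 nm. Percent activity was relative to 20 uM Triacsin C.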

[1] = measured here: cell number channel AC50, cells fed with added oleic acid
[2] = measured here: lipid fluorescence (Fed channel) AC50, cells fed with added oleic acid

Row | Structure (SMILES) | cell number change [%] | AC50 [1] | AC50 [2]
1 | N=C1SC(CC(=O)Nc2ccccc2[N+](=O)[O-])C(=O)N1c1ccccc1 (configuration not stated) | 0.815 | 0.13 µM [falling, full curve, poor fit] | –
2 | CCCc1nnc(SCC(=O)N2CCCCC2C)n1CCOC (configuration not stated) | 4.11 | – | 0.0259 µM [rising, full curve, poor fit]
3 | O=C(Cn1ccc2ccccc2c1=O)NCCC(=O)N1CCCCC1 | 17.5 | – | 29.1 µM [rising, single point]
4 | CC(C)[C@H](NC(=O)c1c(F)cccc1F)C(=O)N1CCN(c2ccc(F)cc2)CC1 | 14.4 | – | 6.51 µM [rising, single point]
5 | O=C(N/N=C/c1cccc(O)c1)NC1CCCCC1 | -6.5 | – | 3.26 µM [falling, single point]
6 | O=C(N/N=C\c1c(O)ccc2ccccc12)c1cncc(Br)c1 | -97.6 | – | 20.6 µM [falling, single point]
7 | COC(=O)C1=C(C)N(c2ccc(F)cc2)/C(=C/c2ccc(O)cc2)C1=O | 13.4 | – | 29.1 µM [rising, single point]
8 | N=C1/C(=C\c2ccc(SCc3ccccc3)o2)C(=O)N=C2SC(CC(=O)N3CCOCC3)=NN12 | 13.2 | – | 29.1 µM [rising, single point]
9 | C=CCNS(=O)(=O)c1ccc(OC)c(C)c1 | -0.364 | – | –
10 | Cc1c(Cl)cccc1NC(=S)NC1CCN(Cc2ccccc2)CC1 | 1.2 | – | 0.116 µM [rising, full curve, poor fit]
11 | Cc1cc(Cn2nc(C(=O)NCc3cccc(C(F)(F)F)c3)cc2-c2ccccc2)on1 | -24.4 | – | 16.4 µM [falling, partial curve, poor fit]
12 | O=C(COc1ccc(S(=O)(=O)N2CCCC2)cc1Cl)NCc1cccnc1 | -1.45 | – | 6.51 µM [rising, single point]
13 | Cc1nn(C)c(C)c1S(=O)(=O)N1CCCC(C(=O)NCC2COc3ccccc3O2)C1 (configuration not stated) | -17.7 | – | 5.8 µM [falling, partial curve, poor fit]
14 | COc1cccc(CNC(=O)COC(=O)c2cccc(S(=O)(=O)N3CCN(C(C)=O)CC3)c2)c1 | 10 | – | 2.06 µM [rising, partial curve, poor fit]
15 | Cc1cc(C)cc(NC(=O)COC(=O)c2n[nH]c3ccccc23)c1 | -28.8 | 3.66 µM [falling, single point] | 2.31 µM [falling, partial curve, poor fit]
16 | O=C(NCCN1CCN(C(=O)c2cccc([N+](=O)[O-])c2)CC1)C(=O)NCc1ccc(Cl)cc1 | – | – | 29.1 µM [falling, single point]
17 | COc1ccc(N(CC(=O)Nc2ccccc2C(=O)NCC(C)C)S(C)(=O)=O)cc1 | – | – | 2.91 µM [rising, partial curve, poor fit]
18 | CCCCC(=O)Nc1ccc2c(c1)C(=O)NC2=O | -7.62 | – | 7.31 µM [rising, partial curve, poor fit]

Row | Structure (SMILES) | cell number change [%] | AC50 [1] | AC50 [2]
19 | COc1ccccc1CNC(=O)COC(=O)c1cccc(S(=O)(=O)N2CCOCC2)c1 | – | – | 16.4 µM [falling, single point]
20 | CC1(C)CC(=O)C2=C(C1)Nc1ncnn1C2c1ccccn1 (configuration not stated) | -4.06 | 0.731 µM [falling, full curve, poor fit] | 29.1 µM [falling, single point]
21 | O=C(CSCCO)Nc1cc(C(F)(F)F)ccc1Cl | -1.48 | – | 14.6 µM [rising, single point]
22 | CCn1cc(CCC(=O)O)c(C)n1 | 74.6 | 6.51 µM [falling, single point] | 6.51 µM [falling, single point]
23 | CCOC(=O)CN1C(=O)SC(CC(=O)Nc2nccs2)C1=O (configuration not stated) | 4.69 | 0.651 µM [falling, single point] | –
24 | CCOc1ccc(S(=O)(=O)NCC(=O)OCc2nnc(-c3ccccc3)o2)cc1 | 14 | – | –
25 | O=C1CSC(c2ccccc2F)N1c1cc(Cl)ccc1O (configuration not stated) | 109 | 29.1 µM [rising, single point] | 18.4 µM [rising, partial curve]
26 | Cc1ccc(C(=O)OCC(=O)N2CCCc3ccccc32)cc1C | 57.2 | 14.6 µM [rising, partial curve] | 0.00517 µM [falling, full curve, poor fit]
27 | CCOC(=O)c1c(NC(C)=O)sc2c(O)c(CN3CCN(CC)CC3)ccc12 | -22.8 | 2.06 µM [falling, full curve, poor fit] | 0.13 µM [falling, full curve, poor fit]
28 | Cc1cc2oc(=O)c3c(c2cc1OC(=O)c1ccco1)CCCC3 | 0.647 | – | –
29 | O=[N+]([O-])c1cccc(-c2ccc(/C=N/n3c(-c4ccccc4)n[nH]c3=S)o2)c1 | -36.5 | 4.11 µM [falling, full curve, poor fit] | –
30 | CC(=O)c1ccc(NC(=O)/C(=C\c2ccccc2)NC(=O)/C=C/c2ccccc2)cc1 | 31.4 | 29.1 µM [rising, partial curve, poor fit] | 25.9 µM [rising, partial curve, poor fit]
31 | COc1ccc(OCc2cc(/C=N\NC(=O)c3ccccc3)ccc2OC)cc1 | 5.95 | – | –
32 | O=C(Nc1ccc2c(c1)OCCO2)c1ccc2ccccc2n1 | 18.2 | 2.91 µM [rising, single point] | 6.51 µM [rising, single point]
33 | O=C(CCc1nnc(CCCc2ccccc2)o1)NCCCC1CCCC1 | 0.428 | – | 4.61 µM [falling, full curve]
34 | C/C(=C\c1ccccc1F)C1Nc2cccc3cccc(c23)N1 | 15.7 | – | 0.13 µM [rising, full curve, poor fit]
35 | CC(C)(CNC(=O)c1cc(=O)[nH]c2ccccc12)N1CCOCC1 | – | 0.58 µM [rising, single point] | –
36 | CCOc1cnc(-c2ccccc2F)o1 | -39.9 | 1.84 µM [falling, partial curve] | –

3 successive records from above, quoted:
Row | Structure (SMILES) | cell number change [%] | AC50 [1] | AC50 [2]
23 | CCOC(=O)CN1C(=O)SC(CC(=O)Nc2nccs2)C1=O (configuration not stated) | 4.69 | 0.651 µM [falling, single point] | –
24 | CCOc1ccc(S(=O)(=O)NCC(=O)OCc2nnc(-c3ccccc3)o2)cc1 | 14 | – | –
25 | O=C1CSC(c2ccccc2F)N1c1cc(Cl)ccc1O (configuration not stated) | 109 | 29.1 µM [rising, single point] | 18.4 µM [rising, partial curve]
